Assay results taken from paper PMC9240053.
No constants are given. Whether binding was seen depends on the method and setting. In cells and extracts the contact can be indirect. Some entries that bind do so weakly or less than the wild type.

The chains behind the UniProt entries cited, without tags or fusion partners. Where a name states a change or a piece, a line headed by the entry shows the natural chain unless it says otherwise. A line that says so, or that is headed by a name, gives the form on record, which may keep a tag or linker. Residues count along the entry.
UniProt P35569: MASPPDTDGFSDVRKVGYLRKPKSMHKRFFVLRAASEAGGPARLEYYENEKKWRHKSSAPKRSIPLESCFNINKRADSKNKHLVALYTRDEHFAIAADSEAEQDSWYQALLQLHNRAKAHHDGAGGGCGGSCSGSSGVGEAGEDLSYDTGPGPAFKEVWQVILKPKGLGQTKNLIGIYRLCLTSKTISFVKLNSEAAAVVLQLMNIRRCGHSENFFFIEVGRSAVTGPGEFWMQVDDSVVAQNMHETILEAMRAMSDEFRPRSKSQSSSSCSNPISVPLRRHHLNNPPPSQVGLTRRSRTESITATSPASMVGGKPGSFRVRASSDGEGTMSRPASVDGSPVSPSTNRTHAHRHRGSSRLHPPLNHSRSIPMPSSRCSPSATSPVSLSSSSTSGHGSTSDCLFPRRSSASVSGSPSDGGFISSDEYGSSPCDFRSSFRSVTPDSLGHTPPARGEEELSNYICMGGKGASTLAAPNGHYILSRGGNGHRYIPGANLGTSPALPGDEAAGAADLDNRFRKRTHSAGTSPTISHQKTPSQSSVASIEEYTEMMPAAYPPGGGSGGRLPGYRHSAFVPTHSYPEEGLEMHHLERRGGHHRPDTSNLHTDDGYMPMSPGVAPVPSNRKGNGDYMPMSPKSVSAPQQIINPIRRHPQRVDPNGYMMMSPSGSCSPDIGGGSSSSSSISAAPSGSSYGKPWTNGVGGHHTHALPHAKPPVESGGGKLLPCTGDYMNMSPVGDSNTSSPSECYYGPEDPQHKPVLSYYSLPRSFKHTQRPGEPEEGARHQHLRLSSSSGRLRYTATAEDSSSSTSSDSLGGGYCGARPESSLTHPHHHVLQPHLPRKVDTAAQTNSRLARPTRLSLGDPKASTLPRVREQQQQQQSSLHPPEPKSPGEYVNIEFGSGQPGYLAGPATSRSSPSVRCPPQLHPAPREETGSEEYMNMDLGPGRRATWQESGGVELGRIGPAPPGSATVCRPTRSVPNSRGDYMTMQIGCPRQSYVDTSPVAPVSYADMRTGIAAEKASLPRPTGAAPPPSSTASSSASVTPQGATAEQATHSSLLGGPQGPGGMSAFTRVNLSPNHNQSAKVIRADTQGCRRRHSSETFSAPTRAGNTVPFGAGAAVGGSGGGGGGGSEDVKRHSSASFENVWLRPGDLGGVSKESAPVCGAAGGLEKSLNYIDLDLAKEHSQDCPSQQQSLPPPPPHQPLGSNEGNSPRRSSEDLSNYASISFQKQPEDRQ
FLAG-tagged mIRS-1 801–1000: residues 801-1000 of P35569
FLAG-tagged mIRS-1 801–1000 G965R mutant (P35569, form named): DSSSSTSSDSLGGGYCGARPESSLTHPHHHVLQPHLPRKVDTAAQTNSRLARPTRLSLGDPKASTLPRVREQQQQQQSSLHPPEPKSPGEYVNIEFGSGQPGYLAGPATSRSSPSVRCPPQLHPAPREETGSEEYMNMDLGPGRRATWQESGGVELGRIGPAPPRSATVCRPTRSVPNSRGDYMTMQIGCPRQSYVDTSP
GFP-mIRS-1 ΔSAR in the C2C12-IRS-1 KO/GFP-mIRS-1 ΔSAR cell line (P35569, form named): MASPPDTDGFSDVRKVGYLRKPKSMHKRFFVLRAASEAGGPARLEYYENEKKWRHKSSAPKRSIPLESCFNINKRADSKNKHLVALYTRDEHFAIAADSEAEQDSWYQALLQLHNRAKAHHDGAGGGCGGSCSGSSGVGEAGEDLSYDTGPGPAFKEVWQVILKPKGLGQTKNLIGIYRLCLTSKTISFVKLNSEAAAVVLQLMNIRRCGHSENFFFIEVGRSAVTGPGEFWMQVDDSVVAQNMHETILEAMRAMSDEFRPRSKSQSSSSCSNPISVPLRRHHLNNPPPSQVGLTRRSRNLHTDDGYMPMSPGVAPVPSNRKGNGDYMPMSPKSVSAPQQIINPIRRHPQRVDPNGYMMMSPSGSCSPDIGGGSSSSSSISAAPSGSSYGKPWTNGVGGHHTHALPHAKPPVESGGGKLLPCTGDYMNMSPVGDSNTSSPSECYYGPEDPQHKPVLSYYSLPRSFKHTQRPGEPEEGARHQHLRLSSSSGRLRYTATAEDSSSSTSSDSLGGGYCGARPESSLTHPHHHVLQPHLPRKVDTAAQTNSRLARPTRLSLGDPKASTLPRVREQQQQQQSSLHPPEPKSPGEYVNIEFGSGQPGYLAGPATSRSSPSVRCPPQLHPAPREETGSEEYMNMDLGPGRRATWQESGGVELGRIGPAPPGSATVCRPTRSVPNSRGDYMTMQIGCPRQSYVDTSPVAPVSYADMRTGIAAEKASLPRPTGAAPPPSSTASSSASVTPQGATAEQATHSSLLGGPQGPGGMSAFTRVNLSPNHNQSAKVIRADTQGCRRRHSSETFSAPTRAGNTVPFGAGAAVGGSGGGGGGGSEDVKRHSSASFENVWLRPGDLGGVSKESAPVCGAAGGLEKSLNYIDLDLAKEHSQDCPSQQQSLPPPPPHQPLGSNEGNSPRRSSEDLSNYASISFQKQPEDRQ
UniProt Q60631: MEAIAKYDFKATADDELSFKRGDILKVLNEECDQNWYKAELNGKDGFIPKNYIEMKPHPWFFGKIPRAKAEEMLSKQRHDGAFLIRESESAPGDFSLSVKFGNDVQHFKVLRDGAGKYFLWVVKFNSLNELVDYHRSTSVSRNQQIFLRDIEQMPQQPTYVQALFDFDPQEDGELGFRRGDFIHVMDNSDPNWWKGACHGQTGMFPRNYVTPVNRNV

How the values were obtained:
[1] = molecular target: mIRS-1 301–600 (self-association region, SAR), FLAG-tagged and GFP-tagged copies (mouse) (UniProt P35569); experiment: co-IP; FLAG-tagged and GFP-tagged constructs co-transfected into 293T cells; lysis in 150 mM NaCl, 50 mM Tris pH 7.3, 0.25 mM EDTA, 1% sodium deoxycholate, 1% Triton X-100; anti-FLAG M2 beads; Western blot; in some panels serum starvation then IGF-1 or insulin (self-association of mIRS-1 enhanced); Supplementary Fig. S4i-k taken as the same format
[2] = molecular target: FLAG-tagged mIRS-1 801–1000 (mouse) (UniProt P35569); experiment: as above
[3] = molecular target: FLAG-tagged mIRS-1 801–1000 G965R mutant (mouse) (UniProt P35569); experiment: as above
[4] = molecular target: mouse insulin receptor substrate 1 (mIRS-1), FLAG-tagged and GFP-tagged copies (mouse) (UniProt P35569); experiment: as above
[5] = molecular target: mIRS-1 ΔSAR (Δ300-600), FLAG-tagged and GFP-tagged copies (mouse) (UniProt P35569); experiment: as above
[6] = molecular target: GFP-mIRS-1 in the C2C12-IRS-1 KO/GFP-mIRS-1 cell line (mouse) (UniProt P35569); experiment: co-IP; GFP-tagged IRS-1 wildtype or mutants immunoprecipitated from IGF-1-stimulated or control C2C12-IRS-1 KO stable cell lines; Western blot with p85 or Grb2 antibodies
[7] = molecular target: GFP-mIRS-1 ΔSAR in the C2C12-IRS-1 KO/GFP-mIRS-1 ΔSAR cell line (mouse) (UniProt P35569); experiment: as above
[8] = molecular target: IRS-1 (as used with PTP1B, Supplementary Fig. S3a, b) (not stated (human or mouse cDNA cloned)) (UniProt P35569); experiment: co-IP; self-association of IRS-1 in the presence of PTP1B wildtype or D181A (Supplementary Fig. S3b); legend not shown
[9] = molecular target: IRS-1 (as used with PTP1B, Supplementary Fig. S3a, b) (not stated (human or mouse cDNA cloned)) (UniProt P35569); experiment: co-IP; PTP1B wildtype or D181A with IRS-1 (Supplementary Fig. S3a); legend not shown, immunoprecipitation is the only interaction method in the methods

Q: “GFP-mIRS-1 IDR (301–1233) (from UniProt P35569 301-1233) (domain or fragment)” was tested. Which binding [1] did it give?
A: binds

Q: For “mIRS-1 301–600 (self-association region, SAR), FLAG-tagged and GFP-tagged copies (from UniProt P35569 301-600) (domain or fragment)”, which binding [2] is on record?
A: binds

Q: And the binding [3]?
A: binds

Q: And the binding [1]?
A: binds

Q: Which binding [4] does the source give for “mouse insulin receptor substrate 1 (mIRS-1), FLAG-tagged and GFP-tagged copies (from UniProt P35569 1-1233)” here?
A: binds

Q: “mIRS-1 ΔSAR (Δ300-600), FLAG-tagged and GFP-tagged copies (from UniProt P35569 1-1233)” was tested. Which binding [5] did it give?
A: binds

Q: How did the binding [6] turn out when “Grb2 (endogenous) (from UniProt Q60631 1-217)” was run?
A: binds

Q: What about the binding [7] of the same molecule?
A: no binding

Q: Which binding [8] does the source give for “IRS-1 (as used with PTP1B, Supplementary Fig. S3a, b) (from UniProt P35569 1-1233)” here?
A: binds

B1: PTP1B D181A mutant (enzyme, UniProt P18031 1-435)
chain: MEMEKEFEQIDKSGSWAAIYQDIRHEASDFPCRVAKLPKNKNRNRYRDVSPFDHSRIKLHQEDNDYINASLIKMEEAQRSYILTQGPLPNTCGHFWEMVWEQKSRGVVMLNRVMEKGSLKCAQYWPQKEEKEMIFEDTNLKLTLISEDIKSYYTVRQLELENLTTQETREILHFHYTTWPAFGVPESPASFLNFLFKVRESGSLSPEHGPVVVHCSAGIGRSGTFCLADTCLLLMDKRKDPSSVDIKKVLLEMRKFRMGLIQTADQLRFSYLAVIEGAKFIMGDSSVQDQWKELSHEDLEPPPEHIPPPPRPPKRILEPHNGKCREFFPNHQWVKEETQEDKDCPIKEEKGSPLNAAPYGIESMSQDTEVRSRVVGGSLRGAQAASPAKGEPSLPEKDEDHALSYWKPFLVNMCVATVLTAGAYLCYRFLFNSNT
Q: B1 was tested. Which binding [9] did it give?
A: binds
